Read-outs that look alike come from different tables or passages of the source.
Key:
[1] = not given; remark: listed apart in the source

For `NCCC[C@H](N)C(=O)O.O=C(O)Cc1ccccc1` [L-ornithine phenyl acetate], the approximated solubility (remaining solvent systems (organic solvents, some with 1% H2O)) was “substantially insoluble”, the approximated solubility (water) was “exhibited a solubility in water” and the “Results (crystalline form)” value ([1]; Test 2, Controlled Cool (4° C.), cyclohexanone) was “No Solid”. For the same compound, the “Results (crystalline form)” value ([1]; Test 3, Controlled Cool (−21° C.), cyclohexanone) was “Form V”, the “Results (crystalline form)” value ([1]; Test 13, Controlled Cool (4° C.), ethanol/acetone (50:50)) was “No Solid” and the “Results (crystalline form)” value ([1]; Test 14, Controlled Cool (−21° C.), ethanol/acetone (50:50)) was “Form III”. The “Results (crystalline form)” value ([1]; Test 24, Controlled Cool (4° C.), acetic acid) was “No Solid”, the “Results (crystalline form)” value ([1]; Test 25, Controlled Cool (−21° C.), acetic acid) was “No Solid” and the “Results (crystalline form)” value ([1]; Test 35, Controlled Cool (4° C.), 1-propanol) was “Form II”. For the same compound, the “Results (crystalline form)” value ([1]; Test 36, Controlled Cool (−21° C.), 1-propanol) was “Form II”, the “Results (crystalline form)” value ([1]; Test 46, Controlled Cool (4° C.), dimethylcarbonate) was “No Solid” and the “Results (crystalline form)” value ([1]; Test 47, Controlled Cool (−21° C.), dimethylcarbonate) was “Form II”. For the same compound, the “Results (crystalline form)” value ([1]; Test 57, Controlled Cool (4° C.), NMP) was “Form II”, the “Results (crystalline form)” value ([1]; Test 58, Controlled Cool (−21° C.), NMP) was “Form II” and the “Results (crystalline form)” value ([1]; Test 68, Controlled Cool (4° C.), EtOAc/cyclohexane (1:2)) was “No Solid”. For the same compound, the “Results (crystalline form)” value ([1]; Test 69, Controlled Cool (−21° C.), EtOAc/cyclohexane (1:2)) was “No Solid”, the “Results (crystalline form)” value ([1]; Test 79, Controlled Cool (4° C.), etOAc/toluene (1:2)) was “No Solid” and the “Results (crystalline form)” value ([1]; Test 80, Controlled Cool (−21° C.), etOAc/toluene (1:2)) was “Form II”. For the same compound, the “Results (crystalline form)” value ([1]; Test 90, Controlled Cool (4° C.), IPA/diisopropyl ether (1:2)) was “Form V”, the “Results (crystalline form)” value ([1]; Test 91, Controlled Cool (−21° C.), IPA/diisopropyl ether (1:2)) was “Form II” and the “Results (crystalline form)” value ([1]; Test 101, Controlled Cool (4° C.), DIPE) was “No Solid”. For the same compound, the “Results (crystalline form)” value ([1]; Test 102, Controlled Cool (−21° C.), DIPE) was “Form V”, the “Results (crystalline form)” value ([1]; Test 112, Controlled Cool (4° C.), nitromethane/water (20%)) was “No Solid” and the “Results (crystalline form)” value ([1]; Test 113, Controlled Cool (−21° C.), nitromethane/water (20%)) was “No Solid”. The “Results (crystalline form)” value ([1]; Test 123, Controlled Cool (4° C.), acetone/water (20%)) was “Form II”, the “Results (crystalline form)” value ([1]; Test 124, Controlled Cool (−21° C.), acetone/water (20%)) was “Form II” and the “Results (crystalline form)” value ([1]; Test 134, Controlled Cool (4° C.), 1,4 dioxane/water (20%)) was “Form II”. For the same compound, the “Results (crystalline form)” value ([1]; Test 135, Controlled Cool (−21° C.), 1,4 dioxane/water (20%)) was “No Solid”, the “Results (crystalline form)” value ([1]; Test 145, Controlled Cool (4° C.), diethyl ether) was “No Solid” and the “Results (crystalline form)” value ([1]; Test 146, Controlled Cool (−21° C.), diethyl ether) was “No Solid”. For the same compound, the “Results (crystalline form)” value ([1]; Test 156, Controlled Cool (4° C.), ethylene glycol) was “No Solid”, the “Results (crystalline form)” value ([1]; Test 157, Controlled Cool (−21° C.), ethylene glycol) was “No Solid” and the “Results (crystalline form)” value ([1]; Test 167, Controlled Cool (4° C.), meOAc/water (20%)) was “No Solid”. The “Results (crystalline form)” value ([1]; Test 168, Controlled Cool (−21° C.), meOAc/water (20%)) was “No Solid”, the “Results (crystalline form)” value ([1]; Test 178, Controlled Cool (4° C.), meOH/acetone (50:50)) was “No Solid” and the “Results (crystalline form)” value ([1]; Test 179, Controlled Cool (−21° C.), meOH/acetone (50:50)) was “No Solid”. The “Results (crystalline form)” value ([1]; Test 189, Controlled Cool (4° C.), DMF) was “Form II”, the “Results (crystalline form)” value ([1]; Test 190, Controlled Cool (−21° C.), DMF) was “Form II” and the “Results (crystalline form of precipitate)” value ([1]; Test 200, Controlled Cool (4° C.), solvent 2-butanol) was “No Solid”. The “Results (crystalline form of precipitate)” value ([1]; Test 201, Controlled Cool (−21° C.), solvent 2-butanol) was “No Solid”, the “Results (crystalline form of precipitate)” value ([1]; Test 211, Controlled Cool (4° C.), solvent cumene) was “No Solid” and the “Results (crystalline form of precipitate)” value ([1]; Test 212, Controlled Cool (−21° C.), solvent cumene) was “No Solid”. The “Results (crystalline form of precipitate)” value ([1]; Test 222, Controlled Cool (4° C.), solvent ethyl formate) was “No Solid”, the “Results (crystalline form of precipitate)” value ([1]; Test 223, Controlled Cool (−21° C.), solvent ethyl formate) was “Form II” and the “Results (crystalline form of precipitate)” value ([1]; Test 233, Controlled Cool (4° C.), solvent isobutyl acetate) was “No Solid”. For the same compound, the “Results (crystalline form of precipitate)” value ([1]; Test 234, Controlled Cool (−21° C.), solvent isobutyl acetate) was “Form II”, the “Results (crystalline form of precipitate)” value ([1]; Test 244, Controlled Cool (4° C.), solvent 3-methyl-1-butanol) was “No Solid” and the “Results (crystalline form of precipitate)” value ([1]; Test 245, Controlled Cool (−21° C.), solvent 3-methyl-1-butanol) was “No Solid”. For the same compound, the “Results (crystalline form of precipitate)” value ([1]; Test 255, Controlled Cool (4° C.), solvent anisole) was “No Solid”, the “Results (crystalline form of precipitate)” value ([1]; Test 256, Controlled Cool (−21° C.), solvent anisole) was “Form II” and the “Results (crystalline form of precipitate)” value ([1]; Test 266, Controlled Cool (4° C.), solvent IPA/isopropyl acetate (1:2)) was “No Solid”. The “Results (crystalline form of precipitate)” value ([1]; Test 267, Controlled Cool (−21° C.), solvent IPA/isopropyl acetate (1:2)) was “No Solid”, the “Results (crystalline form of precipitate)” value ([1]; Test 277, Controlled Cool (4° C.), solvent EtOH: 1% H20) was “No Solid” and the “Results (crystalline form of precipitate)” value ([1]; Test 278, Controlled Cool (−21° C.), solvent EtOH: 1% H20) was “No Solid”. For the same compound, the “Results (crystalline form of precipitate)” value ([1]; Test 288, Controlled Cool (4° C.), solvent EtOH: 3% H20) was “No Solid”, the “Results (crystalline form of precipitate)” value ([1]; Test 289, Controlled Cool (−21° C.), solvent EtOH: 3% H20) was “No Solid” and the “Results (crystalline form of precipitate)” value ([1]; Test 299, Controlled Cool (4° C.), solvent EtOH: 5% H20) was “No Solid”. The “Results (crystalline form of precipitate)” value ([1]; Test 300, Controlled Cool (−21° C.), solvent EtOH: 5% H20) was “No Solid”, the “Results (crystalline form of precipitate)” value ([1]; Test 310, Controlled Cool (4° C.), solvent IPA: 1% H20) was “No Solid” and the “Results (crystalline form of precipitate)” value ([1]; Test 311, Controlled Cool (−21° C.), solvent IPA: 1% H20) was “No Solid”. For the same compound, the “Results (crystalline form of precipitate)” value ([1]; Test 321, Controlled Cool (4° C.), solvent IPA: 3% H20) was “No Solid”, the “Results (crystalline form of precipitate)” value ([1]; Test 322, Controlled Cool (−21° C.), solvent IPA: 3% H20) was “No Solid” and the “Results (crystalline form of precipitate)” value ([1]; Test 332, Controlled Cool (4° C.), solvent IPA: 5% H20) was “No Solid”. For the same compound, the “Results (crystalline form of precipitate)” value ([1]; Test 333, Controlled Cool (−21° C.), solvent IPA: 5% H20) was “No Solid”, the “Results (crystalline form of precipitate)” value ([1]; Test 343, Controlled Cool (4° C.), solvent ACN: 1% H20) was “No Solid” and the “Results (crystalline form of precipitate)” value ([1]; Test 344, Controlled Cool (−21° C.), solvent ACN: 1% H20) was “No Solid”. For the same compound, the “Results (crystalline form of precipitate)” value ([1]; Test 354, Controlled Cool (4° C.), solvent ACN: 6% H20) was “No Solid”, the “Results (crystalline form of precipitate)” value ([1]; Test 355, Controlled Cool (−21° C.), solvent ACN: 6% H20) was “No Solid” and the “Results (crystalline form of precipitate)” value ([1]; Test 365, Controlled Cool (4° C.), solvent ACN: 12% H20) was “No Solid”. For the same compound, the “Results (crystalline form of precipitate)” value ([1]; Test 366, Controlled Cool (−21° C.), solvent ACN: 12% H20) was “No Solid”, the “Results (crystalline form of precipitate)” value ([1]; Test 376, Controlled Cool (4° C.), solvent DMF: 5% H20) was “No Solid” and the “Results (crystalline form of precipitate)” value ([1]; Test 377, Controlled Cool (−21° C.), solvent DMF: 5% H20) was “No Solid”. The “Results (crystalline form of precipitate)” value ([1]; Test 387, Controlled Cool (4° C.), solvent DMF: 15% H20) was “No Solid”, the “Results (crystalline form of precipitate)” value ([1]; Test 388, Controlled Cool (−21° C.), solvent DMF: 15% H20) was “No Solid” and the “Results (crystalline form of precipitate)” value ([1]; Test 398, Controlled Cool (4° C.), solvent DMF: 30% H20) was “Form II”. For the same compound, the “Results (crystalline form of precipitate)” value ([1]; Test 399, Controlled Cool (−21° C.), solvent DMF: 30% H20) was “Form II”, the “Results (crystalline form of precipitate)” value ([1]; Test 409, Controlled Cool (4° C.), 1,4-dioxane: 1% H20) was “No Solid” and the “Results (crystalline form of precipitate)” value ([1]; Test 410, Controlled Cool (−21° C.), 1,4-dioxane: 1% H20) was “No Solid”. For the same compound, the “Results (crystalline form of precipitate)” value ([1]; Test 420, Controlled Cool (4° C.), 1,4-dioxane: 3% H20) was “No Solid”, the “Results (crystalline form of precipitate)” value ([1]; Test 421, Controlled Cool (−21° C.), 1,4-dioxane: 3% H20) was “No Solid” and the “Results (crystalline form of precipitate)” value ([1]; Test 431, Controlled Cool (4° C.), 1,4-dioxane: 10% H20) was “No Solid”. The “Results (crystalline form of precipitate)” value ([1]; Test 432, Controlled Cool (−21° C.), 1,4-dioxane: 10% H20) was “No Solid”, the “Results (crystalline form of precipitate)” value ([1]; Test 442, Controlled Cool (4° C.), MeOH: 5% H20) was “No Solid” and the “Results (crystalline form of precipitate)” value ([1]; Test 443, Controlled Cool (−21° C.), MeOH: 5% H20) was “No Solid”. For the same compound, the “Results (crystalline form of precipitate)” value ([1]; Test 453, Controlled Cool (4° C.), MeOH: 20% H20) was “Form II” and the “Results (crystalline form of precipitate)” value ([1]; Test 454, Controlled Cool (−21° C.), MeOH: 20% H20) was “Form II”.
